Laboratory results as given in patent US20250340871A1.
These are yes or no findings as the source states them, for the method shown. Some binding calls cover weakened binding; strength is not graded here.

Protein sequences, listed by entry. Tags and fused reporters are not part of them. Residues count along the entry.
UniProt P09874, residues 2-1014: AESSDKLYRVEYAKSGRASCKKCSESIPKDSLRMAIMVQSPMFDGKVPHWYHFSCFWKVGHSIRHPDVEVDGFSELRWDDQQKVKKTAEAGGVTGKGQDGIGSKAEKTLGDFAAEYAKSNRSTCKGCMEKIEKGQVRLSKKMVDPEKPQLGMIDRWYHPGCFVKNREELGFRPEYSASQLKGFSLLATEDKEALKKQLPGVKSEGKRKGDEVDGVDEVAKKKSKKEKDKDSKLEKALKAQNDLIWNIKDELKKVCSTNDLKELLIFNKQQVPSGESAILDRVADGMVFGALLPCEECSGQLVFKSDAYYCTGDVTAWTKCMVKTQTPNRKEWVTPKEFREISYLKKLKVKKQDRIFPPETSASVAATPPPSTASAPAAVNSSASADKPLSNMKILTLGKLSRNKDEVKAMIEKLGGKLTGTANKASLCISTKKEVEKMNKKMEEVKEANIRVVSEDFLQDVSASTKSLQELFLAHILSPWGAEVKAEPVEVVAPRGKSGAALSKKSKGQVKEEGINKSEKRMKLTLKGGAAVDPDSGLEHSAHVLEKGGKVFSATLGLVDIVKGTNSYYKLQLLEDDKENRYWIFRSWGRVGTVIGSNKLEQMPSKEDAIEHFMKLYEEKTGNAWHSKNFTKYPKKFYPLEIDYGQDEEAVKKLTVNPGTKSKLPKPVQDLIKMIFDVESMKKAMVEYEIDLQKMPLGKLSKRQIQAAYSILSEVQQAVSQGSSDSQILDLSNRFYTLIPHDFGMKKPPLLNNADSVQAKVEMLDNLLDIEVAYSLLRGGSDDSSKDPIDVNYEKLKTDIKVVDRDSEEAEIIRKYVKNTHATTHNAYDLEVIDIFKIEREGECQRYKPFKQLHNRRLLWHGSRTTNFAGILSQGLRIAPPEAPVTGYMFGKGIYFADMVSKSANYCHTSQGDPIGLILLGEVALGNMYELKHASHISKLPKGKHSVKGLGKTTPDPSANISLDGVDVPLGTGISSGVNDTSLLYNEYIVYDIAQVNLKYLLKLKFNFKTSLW
UniProt P27694: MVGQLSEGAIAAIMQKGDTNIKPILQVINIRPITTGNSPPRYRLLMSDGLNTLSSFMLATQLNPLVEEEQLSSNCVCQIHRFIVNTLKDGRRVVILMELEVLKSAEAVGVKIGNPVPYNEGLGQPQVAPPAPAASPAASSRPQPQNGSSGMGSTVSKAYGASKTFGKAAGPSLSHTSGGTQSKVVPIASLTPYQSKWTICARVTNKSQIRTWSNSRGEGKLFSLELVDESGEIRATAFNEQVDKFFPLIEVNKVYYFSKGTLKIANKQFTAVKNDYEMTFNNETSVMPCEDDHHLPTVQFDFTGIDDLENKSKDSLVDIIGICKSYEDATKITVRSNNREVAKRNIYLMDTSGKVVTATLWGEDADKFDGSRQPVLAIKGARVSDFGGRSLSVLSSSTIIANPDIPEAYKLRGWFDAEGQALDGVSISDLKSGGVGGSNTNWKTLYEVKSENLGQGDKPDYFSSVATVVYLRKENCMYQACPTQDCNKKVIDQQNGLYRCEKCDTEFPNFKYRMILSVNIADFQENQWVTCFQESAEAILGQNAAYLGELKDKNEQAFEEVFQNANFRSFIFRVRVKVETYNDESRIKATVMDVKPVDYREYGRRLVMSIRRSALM
UniProt P15927: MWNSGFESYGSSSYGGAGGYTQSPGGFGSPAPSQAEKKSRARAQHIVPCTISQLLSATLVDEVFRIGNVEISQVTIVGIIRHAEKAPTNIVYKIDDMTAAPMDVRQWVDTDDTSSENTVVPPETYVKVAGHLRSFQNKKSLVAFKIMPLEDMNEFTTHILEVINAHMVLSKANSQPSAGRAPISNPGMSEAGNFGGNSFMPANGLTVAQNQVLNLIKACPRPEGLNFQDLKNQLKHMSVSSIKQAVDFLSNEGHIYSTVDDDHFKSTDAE
UniProt P15976: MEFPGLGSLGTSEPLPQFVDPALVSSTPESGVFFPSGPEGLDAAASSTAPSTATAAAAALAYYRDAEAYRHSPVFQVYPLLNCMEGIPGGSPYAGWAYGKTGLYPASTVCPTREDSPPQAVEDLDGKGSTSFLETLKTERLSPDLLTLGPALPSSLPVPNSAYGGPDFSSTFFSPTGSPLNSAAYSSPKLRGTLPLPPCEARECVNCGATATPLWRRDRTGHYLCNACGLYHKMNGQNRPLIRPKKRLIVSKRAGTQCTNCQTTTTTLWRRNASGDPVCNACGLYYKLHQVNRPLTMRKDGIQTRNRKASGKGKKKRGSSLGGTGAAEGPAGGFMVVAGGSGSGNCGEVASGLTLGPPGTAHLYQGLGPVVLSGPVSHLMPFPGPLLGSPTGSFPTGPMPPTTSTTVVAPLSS
UniProt P46937: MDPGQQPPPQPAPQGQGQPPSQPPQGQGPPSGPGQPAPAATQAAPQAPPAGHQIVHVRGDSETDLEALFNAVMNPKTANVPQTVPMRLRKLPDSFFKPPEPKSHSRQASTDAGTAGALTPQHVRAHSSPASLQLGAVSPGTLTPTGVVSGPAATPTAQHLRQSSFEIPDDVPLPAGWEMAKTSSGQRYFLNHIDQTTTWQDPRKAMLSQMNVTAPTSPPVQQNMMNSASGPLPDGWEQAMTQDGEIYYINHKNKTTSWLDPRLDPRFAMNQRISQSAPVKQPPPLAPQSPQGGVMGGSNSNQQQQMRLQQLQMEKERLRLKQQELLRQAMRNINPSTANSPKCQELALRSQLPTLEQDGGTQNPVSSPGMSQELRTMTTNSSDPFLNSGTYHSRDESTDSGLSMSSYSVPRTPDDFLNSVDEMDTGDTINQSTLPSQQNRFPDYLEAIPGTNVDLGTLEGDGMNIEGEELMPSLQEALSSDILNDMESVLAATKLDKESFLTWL

Legend:
[1] = target: PARP (UniProt P09874); experiment: immunoprecipitation (FIG. 1b)
[2] = target: PARP (UniProt P09874); experiment: immunoprecipitation (FIG. 1b legend)
[3] = target: RPA1 (UniProt P27694); experiment: immunoprecipitation (FIG. 1b)
[4] = target: RPA2 (UniProt P15927); experiment: immunoprecipitation (FIG. 1b)
[5] = target: RPA1 (UniProt P27694); experiment: immunoprecipitation (FIG. 1b legend)
[6] = target: RPA2 (UniProt P15927); experiment: immunoprecipitation (FIG. 1b legend)

binding [1]	binding [2]	binding [3]	binding [4]	binding [5]	binding [6]	Substance
binds	binds					GATA1 (from UniProt P15976 1-413)
binds	binds	binds	binds	binds	binds	YAP (from UniProt P46937 1-504)
